Reference: paper PMC8627557
Results are given in words; binding and its absence hold for the method and conditions named. For part of these data: In cells and extracts the contact can be indirect. Some binding calls cover weakened binding; strength is not graded here. Where a sequence is shown, tags or fusion partners need not be part of it.

Amino acid sequences for entries named in this document (tags omitted). A change or cut given only in a name is not applied to a line headed by its entry.
UniProt Q9H3S7: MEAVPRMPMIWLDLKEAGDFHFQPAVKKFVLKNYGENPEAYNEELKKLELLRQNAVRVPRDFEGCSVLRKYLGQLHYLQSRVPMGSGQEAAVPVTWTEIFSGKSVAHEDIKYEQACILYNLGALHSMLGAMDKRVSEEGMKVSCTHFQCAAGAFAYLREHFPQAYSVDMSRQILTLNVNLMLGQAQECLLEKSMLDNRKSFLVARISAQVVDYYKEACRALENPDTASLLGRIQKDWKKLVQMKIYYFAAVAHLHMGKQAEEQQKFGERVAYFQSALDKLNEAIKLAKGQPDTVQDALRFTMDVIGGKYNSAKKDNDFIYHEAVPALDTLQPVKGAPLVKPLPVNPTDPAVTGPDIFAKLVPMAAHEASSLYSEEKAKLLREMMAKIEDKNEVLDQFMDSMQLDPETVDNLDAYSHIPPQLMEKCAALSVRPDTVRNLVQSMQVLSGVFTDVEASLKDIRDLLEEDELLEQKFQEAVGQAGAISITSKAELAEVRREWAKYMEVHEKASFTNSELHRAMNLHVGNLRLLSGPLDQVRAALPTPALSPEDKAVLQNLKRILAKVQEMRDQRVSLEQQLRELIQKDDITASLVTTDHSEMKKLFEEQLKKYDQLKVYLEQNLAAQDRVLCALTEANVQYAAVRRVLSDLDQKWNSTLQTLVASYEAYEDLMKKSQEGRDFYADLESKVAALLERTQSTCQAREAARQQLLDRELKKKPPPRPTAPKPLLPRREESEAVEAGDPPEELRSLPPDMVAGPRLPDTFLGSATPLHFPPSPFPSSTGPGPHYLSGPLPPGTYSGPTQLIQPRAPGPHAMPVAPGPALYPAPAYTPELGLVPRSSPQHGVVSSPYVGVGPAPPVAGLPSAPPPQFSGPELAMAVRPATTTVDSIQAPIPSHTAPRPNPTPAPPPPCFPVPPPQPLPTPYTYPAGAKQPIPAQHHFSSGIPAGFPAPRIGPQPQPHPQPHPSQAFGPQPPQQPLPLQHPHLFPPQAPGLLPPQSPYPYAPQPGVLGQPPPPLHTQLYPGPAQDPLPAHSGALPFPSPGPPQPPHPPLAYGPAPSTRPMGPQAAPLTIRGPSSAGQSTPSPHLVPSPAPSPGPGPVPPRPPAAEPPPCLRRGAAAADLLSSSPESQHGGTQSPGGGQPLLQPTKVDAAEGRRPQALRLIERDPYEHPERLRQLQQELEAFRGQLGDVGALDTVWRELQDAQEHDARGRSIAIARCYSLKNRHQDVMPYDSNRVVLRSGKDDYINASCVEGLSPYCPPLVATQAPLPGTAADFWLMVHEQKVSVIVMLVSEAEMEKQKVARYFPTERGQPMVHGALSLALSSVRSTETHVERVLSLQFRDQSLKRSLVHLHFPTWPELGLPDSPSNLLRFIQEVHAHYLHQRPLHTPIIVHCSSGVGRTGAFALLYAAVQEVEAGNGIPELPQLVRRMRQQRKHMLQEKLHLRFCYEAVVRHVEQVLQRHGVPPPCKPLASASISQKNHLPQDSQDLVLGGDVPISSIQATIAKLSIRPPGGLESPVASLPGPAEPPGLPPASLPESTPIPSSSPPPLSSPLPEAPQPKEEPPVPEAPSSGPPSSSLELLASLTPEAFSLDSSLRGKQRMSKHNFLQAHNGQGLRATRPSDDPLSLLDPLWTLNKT

B1: GFP–Rabaptin-5 CC2-2 (domain or fragment, UniProt Q15276 661-805)
chain: SLQQAEDFILPDTTEALRELVLKYREDIINVRTAADHVEEKLKAEILFLKEQIQAEQCLKENLEETLQLEIENCKEEIASISSLKAELERIKVEKGQLESTLREKSQQLESLQEIKISLEEQLKKETAAKATVEQLMFEEKNKAQ
B2: GFP–Rabaptin-5 (protein, UniProt Q15276 1-862)
chain: MAQPGPASQPDVSLQQRVAELEKINAEFLRAQQQLEQEFNQKRAKFKELYLAKEEDLKRQNAVLQAAQDDLGHLRTQLWEAQAEMENIKAIATVSENTKQEAIDEVKRQWREEVASLQAVMKETVRDYEHQFHLRLEQERTQWAQYRESAEREIADLRRRLSEGQEEENLENEMKKAQEDAEKLRSVVMPMEKEIAALKDKLTEAEDKIKELEASKVKELNHYLEAEKSCRTDLEMYVAVLNTQKSVLQEDAEKLRKELHEVCHLLEQERQQHNQLKHTWQKANDQFLESQRLLMRDMQRMEIVLTSEQLRQVEELKKKDQEDDEQQRLNKRKDHKKADVEEEIKIPVVCALTQEESSAQLSNEEEHLDSTRGSVHSLDAGLLLPSGDPFSKSDNDMFKDGLRRAQSTDSLGTSGSLQSKALGYNYKAKSAGNLDESDFGPLVGADSVSENFDTASLGSLQMPSGFMLTKDQERAIKAMTPEQEETASLLSSVTQGMESAYVSPSGYRLVSETEWNLLQKEVHNAGNKLGRRCDMCSNYEKQLQGIQIQEAETRDQVKKLQLMLRQANDQLEKTMKDKQELEDFIKQSSEDSSHQISALVLRAQASEILLEELQQGLSQAKRDVQEQMAVLMQSREQVSEELVRLQKDNDSLQGKHSLHVSLQQAEDFILPDTTEALRELVLKYREDIINVRTAADHVEEKLKAEILFLKEQIQAEQCLKENLEETLQLEIENCKEEIASISSLKAELERIKVEKGQLESTLREKSQQLESLQEIKISLEEQLKKETAAKATVEQLMFEEKNKAQRLQTELDVSEQVQRDFVKLSQTLQVQLERIRQADSLERIRAILNDTKLTDINQLPET
B3: endogenous Rabaptin-5 (protein, UniProt Q15276 1-862)
chain: B2 chain
B4: GFP–Rabaptin-5 ΔR4BD (protein, UniProt Q15276)
chain: MAQPLEQERTQWAQYRESAEREIADLRRRLSEGQEEENLENEMKKAQEDAEKLRSVVMPMEKEIAALKDKLTEAEDKIKELEASKVKELNHYLEAEKSCRTDLEMYVAVLNTQKSVLQEDAEKLRKELHEVCHLLEQERQQHNQLKHTWQKANDQFLESQRLLMRDMQRMEIVLTSEQLRQVEELKKKDQEDDEQQRLNKRKDHKKADVEEEIKIPVVCALTQEESSAQLSNEEEHLDSTRGSVHSLDAGLLLPSGDPFSKSDNDMFKDGLRRAQSTDSLGTSGSLQSKALGYNYKAKSAGNLDESDFGPLVGADSVSENFDTASLGSLQMPSGFMLTKDQERAIKAMTPEQEETASLLSSVTQGMESAYVSPSGYRLVSETEWNLLQKEVHNAGNKLGRRCDMCSNYEKQLQGIQIQEAETRDQVKKLQLMLRQANDQLEKTMKDKQELEDFIKQSSEDSSHQISALVLRAQASEILLEELQQGLSQAKRDVQEQMAVLMQSREQVSEELVRLQKDNDSLQGKHSLHVSLQQAEDFILPDTTEALRELVLKYREDIINVRTAADHVEEKLKAEILFLKEQIQAEQCLKENLEETLQLEIENCKEEIASISSLKAELERIKVEKGQLESTLREKSQQLESLQEIKISLEEQLKKETAAKATVEQLMFEEKNKAQRLQTELDVSEQVQRDFVKLSQTLQVQLERIRQADSLERIRAILNDTKLTDINQLPET

Assays:
[1] = target: full-length HA–HD-PTP (human) (UniProt Q9H3S7); test: co-IP; lysates of HEK293T cells transfected with HA–HD-PTP constructs (with co-transfected GFP–Rabaptin-5 constructs, or endogenous Rabaptin-5); IP with anti-HA in IP buffer (25 mM Tris-HCl pH 7.5, 150 mM NaCl, 0.5% IGEPAL CA-630), 4°C; western blot
[2] = target: HA–HD-PTP L202D/I206D (human) (UniProt Q9H3S7); test: as above
[3] = target: FKBP–HD-PTP–Myc (UniProt Q9H3S7); test: mitochondrial relocation assay (rapamycin-induced FKBP/FRB targeting, immunofluorescence); HeLa cells expressing Mito-FRB, FKBP–HD-PTP–Myc and GFP or GFP–Rabaptin-5; 1 µM rapamycin for 180 min

Row | Binder | binding [1] | binding [2] | binding [3]
1 | B1 | binds |  | 
2 | B2 | binds | binds | binds
3 | B3 | binds |  | 
4 | B4 | binds |  | 
